B1: anm2CP: chromoprotein from Anthomedusae sp. SL-2003 (AY485336), SEQ ID NO: 48 (protein, listed as Anthomedusae sp.)
chain: MEGGPALFQSDMTFKIFIDGVVNDQKFTIIADGSSKFPHGDFNVHAVCETGKLPMSWKPICHLIQYGEPFFAKYPNGISHFAQECFPEGLTIDRTVRFENDGTMTSHHTYELDGTCVISRITVNCDGFQPDGPIMKDQLVDILPTETHMFPHGSNAVRQLCYIGFTTADGGLMMSHFDSKLTFNGSRAIKIPGPHFVTVIIKQMKDTSDKRDHVCQREVTYAHSVPRITSAI
B2: efofCP/RFP: protein from Echinopora forskaliana (EU498726), SEQ ID NO: 34 (protein, listed as Echinopora forskaliana)
chain: MSVIKQVMKTKLHLEGTVNGHDFTIEGKGEGKPYEGLQHMKMTVTKGAPLPFSVHILTPSHMYGSKPFNKYPADIPDYHKQSFPEGMSWERSMIFEDGGVCTASNHSSINLQENCFIYDVKFHGVNLPPDGPVMQKTIAGWEPSVETLYVRDGMLKSDTAMVFKLKGGGHHRVDFKTTYKAKKPVKLPEFHFVEHRLELTKHDKDFTTWDQQEAAEGHFSPLPKALP
B3: efasCFP: cyan fluorescent protein from Eusmilia fastigiata (DQ206397), SEQ ID NO: 36 (protein, listed as Echinopora forskaliana)
chain: MSFSKQVLNDVTMTYFMEGSVNGHDFTIEGEGTGKPYEGHQRFNLRVTKGAPLPFAVDILSAAFAYGNRCFTKYPKEIPDFFKQSLPEDMSWERTMTFEDGGIVAISAHIRLIGNRFEHKSKFVGVNFPADGPVMQRKTLGWEPSSEKMTPRDGILKGYVPSFLVLQGGGNYRCDYDTSYRAMKPVEMPGGHFIQHRIVRRDIKKDSNGNTWQIQEDAFAHNSEVPDSA
B4: spisCP: non-fluorescent chromoprotein from Stylophora pistillata (DQ206398), SEQ ID NO: 38 (protein, listed as Echinopora forskaliana)
chain: MSHSKQALADTMKMTWLMEGSVNGHAFTIEGEGTGKPYEGKQSGTFRVTKGGPLPFAFDIVAPTLKYGFKCFMKYPADIPDYFKLAFPEGLTYDRKIAFEDGGCATATVEMSLKGNTLVHKTNFQGGNFPIDGPVMQKRTLGWEPTSEKMTPCDGIIKGDTIMYLMVEGGKTLKCRYENNYRANKPVLMPPSHFVDLRLTRTNLDKEGLAFKLEEYAVARVLEV
B5: scubGFP: green fluorescent protein from Scolymia cubensis (AY037767), SEQ ID NO: 40 (protein, listed as Echinopora forskaliana)
chain: MQRAGMKVKEHMKIKLRMGGTVNGKHFAVNGTGDGYPYQGKQILKLIVEGSEPLPFAFDILSAAFQYGNRAFTEYPTEIADYFKQSFEFGEGFSWERSFTFEDGAICVATNDITMVGGEFQYDIRFDGLNFPEDGPVMQKKTVKWEPSTEIMYMQNGVLKGEVNMALLLQDKSHYRCDLKTTYKAKNNVPHPPGYHYVDHCIEILEERKDHVKLREHAKARSSLSPTSAKERKA
B6: rfloRFP: red fluorescent protein from Ricordea florida (AY037773), SEQ ID NO: 42 (protein, listed as Ricordea florida)
chain: MSALKEEMKIKLTLVGVVNGHPFKIIGDGKGKPYEGSQELTLAVVEGGPLPFSYDILTTIVHYGNRAFVNYPKDIPDIFKQTCSGPGAGYSWQRTMSFEDGGVCTATSHIRVDGDTFNYDIHFMGADFPLNGPVMQKRTVKWEPSTEIMFQCDGLLRGDVAMSLLLKGGGHYRCDFKTIYKPKKNVKMPGYHFVDHCIEITSQQDDYNVVELYEGAVAHYSPLQKPCQAKA
B7: rmueGFP: green fluorescent protein from Renilla muelleri (AY015996), SEQ ID NO: 44 (protein, listed as Renilla muelleri)
chain: MSKQILKNTCLQEVMSYKVNLEGIVNNHVFTMEGCGKGNILFGNQLVQIRVTKGAPLPFAFDIVSPAFQYGNRTFTKYPNDISDYFIQSFPAGFMYERTLRYEDGGLVEIRSDINLIEDKFVYRVEYKGSNFPDDGPVMQKTILGIEPSFEAMYMNNGVLVGEVILVYKLNSGKYYSCHMKTLMKSKGVVKEFPSYHFIQHRLEKTYVEDGGFVEQHETAIAQMTSIGKPLGSLHEWV
B8: ceriantRFP: red fluorescent protein from Cerianthus sp. DW-2003 (AY296063), SEQ ID NO: 46 (protein, listed as Cerianthus sp.)
chain: MNLSKNVSVSVYMKGNVNNHEFEYDGEGGGDPYTGKYSMKMTLRGQNCLPFSYDIITTAFQYGFRVFTKYPEGIVDYFKDSLPDAFQWNRRIVFEDGGVLNMSSDITYKDNVLHGDVWAVGVNFPPNGPVMKNEIVMEEPTEETFTPKNGVLVGFCPKAYLLKDGSYYYGNMTTFYRSKKSGQAPPGYHFVKHRLVKTNVGHGFKTVEQTEYATAHVSDLPK
B9: phiYFP: yellow fluorescent protein from Phialidium sp. SL-2003 (AY485333), SEQ ID NO: 50 (protein)
chain: MSSGALLFHGKIPYVVEMEGNVDGHTFSIRGKGYGDASVGKVDAQFICTTGDVPVPWSTLVTTLTYGAQCFAKYGPELKDFYKSCMPEGYVQERTITFEGDGVFKTRAEVTFENGSVYNRVKLNGQGFKKDGHVLGKNLEFNFTPHCLYIWGDQANHGLKSAFKIMHEITGSKEDFIVADHTQMNTPIGGGPVHVPEYHHITYHVTLSKDVTDHRDNMSLVETVRAVDCRKTYL
modifications: Aequorea Victoria
B10: cpGFP: green fluorescent protein from Chiridius poppei (AB185173), SEQ ID NO: 52 (protein, listed as Chiridius poppei)
chain: MTTFKIESRIHGNLNGEKFELVGGGVGEEGRLEIEMKTKDKPLAFSPFLLSHCMGYGFYHFASFPKGTKNIYLHAATNGGYTNTRKEIYEDGGILEVNFRYTYEFNKIIGDVECIGHGFPSQSPIFKDTIVKSCPTVDLMLPMSGNIIASSYARAFQLKDGSFYTAEVKNNIDFKNPIHESFSKSGPMFTHRRVEETHTKENLAMVEYQQVFNSAPRDM

Test: Absorption and fluorescence of LEAT proteins and their mutants
Format: physicochemical
Settings: not given
From the text: FIG. 7. Absorption spectra of YFP (A, B) and mCherry (E, F) and their mutants. (B) is a zoom in view of YFPmu4 and YFPmu7 in (A). (F) is a zoom in view of mCherrymu4 and mCherrymu7 in (E). Fluorescence of YFP (C) and mCherry (G) and their mutant. Water hydrolysis and O2 evolution activities of YFP (D) and mCherry (H) and their mutants under light. (A, B, C, E, F, G): absorption and fluorescence intensities were compared with same concentrations of proteins. Absorption intensity of non-mutated YFP or mCherry is considered as 1, and fluorescence intensity of non-mutated YFP or mCherry is considered as 100.
In the case of B1, the Fluorescence emission wavelength is reported as 830-870 nm,.

Same assay, conditions: fluorescence intensity in words, recombinant protein from E. coli
In the case of B2, the Fluorescence is reported as “Strong”.
For B3, the Fluorescence was “Strong”.
In the case of B4, the Fluorescence is reported as “Extream weak”.
With B5 the Fluorescence was “Strong”.
With B6 the Fluorescence was “weak”.
With B7 the Fluorescence was “weak”.
In the case of B8, the Fluorescence is reported as “strong”.
With B9 the Fluorescence was “Strong”.
In the case of B10, the Fluorescence is reported as “Stong”.

Source: patent US20170037425A1, “METHOD FOR IMPROVING PLANT TRAIT” (SHANGHAI INSTITUTES FOR BIOLOGICAL SCIENCES, CHINESE …, priority 2012, published 2017)
